Results from the supplement of paper PMC4604168 (melanoma cell lines).
The other results are listed elsewhere or left out. Single values are uncertain, as repeats are few or missing.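 Imaging used 1,536-well plates; nuclei positive for cleaved PARP by antibody were divided by total DNA-stained nuclei to yield the apoptosis fraction. Doses for screening kept most cells viable, and cell lines differ markedly in resting and induced cleaved-PARP levels.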

The compounds below were run on WM3619 (assay: cleaved PARP positive nuclei fraction relative to DMSO control; melanoma cells; higher = more apoptosis). Conditions: library dose: low library concentration; 72 h.
In the case of `NC(=O)c1ccc(N(C(N)=O)c2c(F)cccc2F)nc1-c1ccc(F)cc1F` + Nc1nc(F)nc2c1ncn2[C@@H]1O[C@H](CO)[C@@H](O)[C@@H]1O [fludarabine] (first compound 0.4 µM, partner dose 0.2 µM), the “cleaved PARP positive nuclei fraction” value was 77.2%.
For `Cn1sc(=O)n(Cc2ccccc2)c1=O` + CNC(=O)c1cc(Oc2ccc(NC(=O)Nc3ccc(Cl)c(C(F)(F)F)c3)cc2)ccn1 [sorafenib] (first compound 0.4 µM, partner dose 0.4 µM), the “cleaved PARP positive nuclei fraction” value was 116%.
In the case of `COc1ccc(C2=N[C@@H](c3ccc(Cl)cc3)[C@@H](c3ccc(Cl)cc3)N2C(=O)N2CCNC(=O)C2)c(OC(C)C)c1` [Nutlin-3] + CN(c1ncccc1CNc1nc(Nc2ccc3c(c2)CC(=O)N3)ncc1C(F)(F)F)S(C)(=O)=O [PF562271] (first compound 0.1 µM, partner dose 0.08 µM), the “cleaved PARP positive nuclei fraction” value was 177%.
For `CN(c1ncccc1CNc1nc(Nc2ccc3c(c2)CC(=O)N3)ncc1C(F)(F)F)S(C)(=O)=O` + Cn1c(=O)n(-c2ccc(C(C)(C)C#N)cc2)c2c3cc(-c4cnc5ccccc5c4)ccc3ncc21 [NVP-BEZ235] (first compound 0.08 µM, partner dose 0.004 µM), the “cleaved PARP positive nuclei fraction” value was 203%.
`Cn1sc(=O)n(Cc2ccccc2)c1=O` + CCN(CC)CCNC(=O)c1c(C)[nH]c(/C=C2\C(=O)Nc3ccc(F)cc32)c1C [sunitinib] (first compound 0.4 µM, partner dose 0.4 µM) was tested, and the “cleaved PARP positive nuclei fraction” value was 59.9%.
`CC1(C)CCC(c2ccc(Cl)cc2)=C(CN2CCN(c3ccc(C(=O)NS(=O)(=O)c4ccc(N[C@H](CCN5CCOCC5)CSc5ccccc5)c(S(=O)(=O)C(F)(F)F)c4)cc3)CC2)C1` + Cc1nc(Nc2ncc(C(=O)Nc3c(C)cccc3Cl)s2)cc(N2CCN(CCO)CC2)n1 [dasatanib] (first compound 0.4 µM, partner dose 0.004 µM) was tested, and the “cleaved PARP positive nuclei fraction” value was 128%.
`Cn1cnc2c(F)c(Nc3ccc(Br)cc3Cl)c(C(=O)NOCCO)cc21` [selumetinib] + Cn1c(Nc2ccc(C(F)(F)F)cc2)nc2cc(Oc3ccnc(-c4ncc(C(F)(F)F)[nH]4)c3)ccc21 [CHIR265] (first compound 0.015 µM, partner dose 0.08 µM) was tested, and the “cleaved PARP positive nuclei fraction” value was 251%.
With `C[C@@H](N)c1ccc(C(=O)Nc2ccnc3[nH]ccc23)cc1` + Nc1ncn([C@H]2C[C@H](O)[C@@H](CO)O2)c(=O)n1 [decitabine] (first compound 0.4 µM, partner dose 0.1 µM) the “cleaved PARP positive nuclei fraction” value was 94.4%.
`CC1(C)CCC(c2ccc(Cl)cc2)=C(CN2CCN(c3ccc(C(=O)NS(=O)(=O)c4ccc(N[C@H](CCN5CCOCC5)CSc5ccccc5)c(S(=O)(=O)C(F)(F)F)c4)cc3)CC2)C1` + COCC[n+]1c2c(n(Cc3cnccn3)c1C)C(=O)c1ccccc1C2=O [YM155] (first compound 0.4 µM, partner dose 0.0004 µM) was tested, and the “cleaved PARP positive nuclei fraction” value was 135%.
For `Cn1sc(=O)n(Cc2ccccc2)c1=O` + CS(=O)(=O)CCNCc1ccc(-c2ccc3ncnc(Nc4ccc(OCc5cccc(F)c5)c(Cl)c4)c3c2)o1 [lapatinib] (first compound 0.4 µM, partner dose 0.8 µM), the “cleaved PARP positive nuclei fraction” value was 116%.
`Cn1cnc2c(F)c(Nc3ccc(Br)cc3Cl)c(C(=O)NOCCO)cc21` [selumetinib] + Nc1nc(F)nc2c1ncn2[C@@H]1O[C@H](CO)[C@@H](O)[C@@H]1O [fludarabine] (first compound 0.015 µM, partner dose 0.2 µM) was tested, and the “cleaved PARP positive nuclei fraction” value was 100%.
In the case of `CS(=O)(=O)c1ccc(C(=O)Nc2ccc(Cl)c(-c3ccccn3)c2)c(Cl)c1` [vismodegib] + CC(C)C[C@H](NC(=O)[C@H](Cc1ccccc1)NC(=O)c1cnccn1)B(O)O [Bortezomib] (first compound 1 µM, partner dose 0.001 µM), the “cleaved PARP positive nuclei fraction” value was 121%.
With `CC1(C)CCC(c2ccc(Cl)cc2)=C(CN2CCN(c3ccc(C(=O)NS(=O)(=O)c4ccc(N[C@H](CCN5CCOCC5)CSc5ccccc5)c(S(=O)(=O)C(F)(F)F)c4)cc3)CC2)C1` + C=C(c1ccc(C(=O)O)cc1)c1cc2c(cc1C)C(C)(C)CCC2(C)C [Bexarotene] (first compound 0.4 µM, partner dose 2 µM) the “cleaved PARP positive nuclei fraction” value was 148%.
With `CS(=O)(=O)c1ccc(C(=O)Nc2ccc(Cl)c(-c3ccccn3)c2)c(Cl)c1` [vismodegib] + CC(=O)c1c(C)c2cnc(Nc3ccc(N4CCNCC4)cn3)nc2n(C2CCCC2)c1=O [palbociclib] (first compound 1 µM, partner dose 0.04 µM) the “cleaved PARP positive nuclei fraction” value was 84.2%.
With `NC(=O)c1ccc(N(C(N)=O)c2c(F)cccc2F)nc1-c1ccc(F)cc1F` + C#Cc1cccc(Nc2ncnc3cc(OCCOC)c(OCCOC)cc23)c1 [erlotinib] (first compound 0.4 µM, partner dose 0.8 µM) the “cleaved PARP positive nuclei fraction” value was 82.4%.
With `CS(=O)(=O)c1ccc(C(=O)Nc2ccc(Cl)c(-c3ccccn3)c2)c(Cl)c1` [vismodegib] + Nc1nc(F)nc2c1ncn2[C@@H]1O[C@H](CO)[C@@H](O)[C@@H]1O [fludarabine] (first compound 1 µM, partner dose 0.2 µM) the “cleaved PARP positive nuclei fraction” value was 207%.
`NC(=O)c1ccc(N(C(N)=O)c2c(F)cccc2F)nc1-c1ccc(F)cc1F` + C=CCNC1=C2C[C@@H](C)C[C@H](OC)[C@H](O)[C@@H](C)/C=C(\C)[C@H](OC(N)=O)[C@@H](OC)/C=C\C=C(/C)C(=O)NC(=CC1=O)C2=O [Tanespimycin] (first compound 0.4 µM, partner dose 0.002 µM) was tested, and the “cleaved PARP positive nuclei fraction” value was 154%.
`CC(=O)O[C@@]12CO[C@@H]1C[C@H](O)[C@@]1(C)C(=O)[C@H](O)C3=C(C)[C@@H](OC(=O)[C@H](O)[C@@H](NC(=O)OC(C)(C)C)c4ccccc4)C[C@@](O)([C@@H](OC(=O)c4ccccc4)[C@H]21)C3(C)C` [Docetaxel] + C=C(c1ccc(C(=O)O)cc1)c1cc2c(cc1C)C(C)(C)CCC2(C)C [Bexarotene] (first compound 0.0001 µM, partner dose 2 µM) was tested, and the “cleaved PARP positive nuclei fraction” value was 103%.
`CC(=O)O[C@@]12CO[C@@H]1C[C@H](O)[C@@]1(C)C(=O)[C@H](O)C3=C(C)[C@@H](OC(=O)[C@H](O)[C@@H](NC(=O)OC(C)(C)C)c4ccccc4)C[C@@](O)([C@@H](OC(=O)c4ccccc4)[C@H]21)C3(C)C` [Docetaxel] + C[C@]1(c2nc3c(C(N)=O)cccc3[nH]2)CCCN1 [Veliparib] (first compound 0.0001 µM, partner dose 1.4 µM) was tested, and the “cleaved PARP positive nuclei fraction” value was 368%.
In the case of `CCN(CC)CCNC(=O)c1c(C)[nH]c(/C=C2\C(=O)Nc3ccc(F)cc32)c1C` [sunitinib] + OCc1c[nH]c2ccccc12 [Indole-3-carbinol] (first compound 0.4 µM, partner dose 0.8 µM), the “cleaved PARP positive nuclei fraction” value was 68%.
In the case of `C[C@]1(O)C[C@@H](c2nc(-c3ccc4ccc(-c5ccccc5)nc4c3)c3c(N)nccn32)C1` + CCCS(=O)(=O)Nc1ccc(F)c(C(=O)c2c[nH]c3ncc(Cl)cc23)c1F [PLX4720] (first compound 0.4 µM, partner dose 0.08 µM), the “cleaved PARP positive nuclei fraction” value was 118%.
In the case of `Cn1cnc2c(F)c(Nc3ccc(Br)cc3Cl)c(C(=O)NOCCO)cc21` [selumetinib] + C#Cc1cccc(Nc2ncnc3cc(OCCOC)c(OCCOC)cc23)c1 [erlotinib] (first compound 0.015 µM, partner dose 0.8 µM), the “cleaved PARP positive nuclei fraction” value was 134%.
In the case of `Cn1sc(=O)n(Cc2ccccc2)c1=O` + OCc1c[nH]c2ccccc12 [Indole-3-carbinol] (first compound 0.4 µM, partner dose 0.8 µM), the “cleaved PARP positive nuclei fraction” value was 115%.
`Cn1cnc2c(F)c(Nc3ccc(Br)cc3Cl)c(C(=O)NOCCO)cc21` [selumetinib] + C[C@@H](Oc1cc(-c2cnn(C3CCNCC3)c2)cnc1N)c1c(Cl)ccc(F)c1Cl [Crizotinib] (first compound 0.015 µM, partner dose 0.2 µM) was tested, and the “cleaved PARP positive nuclei fraction” value was 90.7%.
In the case of `NC(=O)c1ccc(N(C(N)=O)c2c(F)cccc2F)nc1-c1ccc(F)cc1F` + Clc1ccc(Nc2nnc(Cc3ccncc3)c3ccccc23)cc1 [vatalanib] (first compound 0.4 µM, partner dose 2 µM), the “cleaved PARP positive nuclei fraction” value was 115%.
`Cn1sc(=O)n(Cc2ccccc2)c1=O` + Clc1ccc(Nc2nnc(Cc3ccncc3)c3ccccc23)cc1 [vatalanib] (first compound 0.4 µM, partner dose 2 µM) was tested, and the “cleaved PARP positive nuclei fraction” value was 103%.
For `COc1ccc(C2=N[C@@H](c3ccc(Cl)cc3)[C@@H](c3ccc(Cl)cc3)N2C(=O)N2CCNC(=O)C2)c(OC(C)C)c1` [Nutlin-3] + CC(=O)c1c(C)c2cnc(Nc3ccc(N4CCNCC4)cn3)nc2n(C2CCCC2)c1=O [palbociclib] (first compound 0.1 µM, partner dose 0.04 µM), the “cleaved PARP positive nuclei fraction” value was 126%.
`COc1ccc(C2=N[C@@H](c3ccc(Cl)cc3)[C@@H](c3ccc(Cl)cc3)N2C(=O)N2CCNC(=O)C2)c(OC(C)C)c1` [Nutlin-3] + Cn1c(=O)n(-c2ccc(C(C)(C)C#N)cc2)c2c3cc(-c4cnc5ccccc5c4)ccc3ncc21 [NVP-BEZ235] (first compound 0.1 µM, partner dose 0.004 µM) was tested, and the “cleaved PARP positive nuclei fraction” value was 92%.
For `NC(=O)c1ccc(N(C(N)=O)c2c(F)cccc2F)nc1-c1ccc(F)cc1F` + C=C(c1ccc(C(=O)O)cc1)c1cc2c(cc1C)C(C)(C)CCC2(C)C [Bexarotene] (first compound 0.4 µM, partner dose 2 µM), the “cleaved PARP positive nuclei fraction” value was 106%.
